Measurements published in patent EP4606823A1.
No constants are given. Whether binding was seen depends on the method and setting. Some results given as binding are weak or reduced against the parent protein; the word gives no strength. Where a sequence is shown, tags or fusion partners need not be part of it.

Amino acid sequences for entries named in this document (tags omitted). Residues count along the entry.
UniProt Q8NHJ6, residues 22-259: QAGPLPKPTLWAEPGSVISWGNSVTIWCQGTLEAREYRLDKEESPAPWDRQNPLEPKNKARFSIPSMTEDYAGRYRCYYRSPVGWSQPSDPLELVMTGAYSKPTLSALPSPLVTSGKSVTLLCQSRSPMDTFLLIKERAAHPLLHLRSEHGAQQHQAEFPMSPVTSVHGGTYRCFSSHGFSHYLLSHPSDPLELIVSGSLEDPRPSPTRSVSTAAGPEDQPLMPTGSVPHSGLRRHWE

Key:
LILRB4 protein [1] = molecular target: LILRB4 protein (UniProt Q8NHJ6); test: SPR; LILRB4 protein stationary phase, ApoE mobile phase 1, NLB(G4S)IGG1FC mobile phase 2
LILRB4 protein [2] = molecular target: LILRB4 protein (UniProt Q8NHJ6); test: SPR competition; LILRB4 protein stationary phase, NLB(G4S)IGG1FC mobile phase; competitor NLB14

binding (LILRB4 protein [1])	binding (LILRB4 protein [2])	Binder
binds		NLB14 VHH antibody fused with human IgG1 (Fc) (Fc fusion, not shown: a dimerising Fc or GST) DVQLQESGGGLVQPGGSLRLSCAASGFTLDYYAIGWFRQAPGKEREGVSCVSSSDGSTYYADSVKGRFTISRDNAKNTVYLQMNSLKPEDTAVYYCAADQYSSTWTIRLTRCHFGSWGQGTQVTVSSGGGGS
binds	binds	NLB4 VHH antibody fused with human IgG1 (Fc) (Fc fusion, not shown: a dimerising Fc or GST) DVQLQESGGGLVQSGGSLRLSCLASGTSGNVKAVGWYGWYRQAPGKQREVVATITRGGIPNYADSVQGRFTISRDNAQDTVFLQMNSLKPADTAVYYCYARILTDDWHDLWGQGTQVTVSSGGGGS
